Source: patent US20260201389A1
These are yes or no findings as the source states them, for the method shown. Binding seen in cells or lysates may run through a third protein. Some results given as binding are weak or reduced against the parent protein; the word gives no strength.

Protein sequences, listed by entry. Tags and fused reporters are not part of them. Lines headed by an entry give the natural chain unless they say otherwise; changes in a name come on top. Residues count along the entry.
UniProt O35253: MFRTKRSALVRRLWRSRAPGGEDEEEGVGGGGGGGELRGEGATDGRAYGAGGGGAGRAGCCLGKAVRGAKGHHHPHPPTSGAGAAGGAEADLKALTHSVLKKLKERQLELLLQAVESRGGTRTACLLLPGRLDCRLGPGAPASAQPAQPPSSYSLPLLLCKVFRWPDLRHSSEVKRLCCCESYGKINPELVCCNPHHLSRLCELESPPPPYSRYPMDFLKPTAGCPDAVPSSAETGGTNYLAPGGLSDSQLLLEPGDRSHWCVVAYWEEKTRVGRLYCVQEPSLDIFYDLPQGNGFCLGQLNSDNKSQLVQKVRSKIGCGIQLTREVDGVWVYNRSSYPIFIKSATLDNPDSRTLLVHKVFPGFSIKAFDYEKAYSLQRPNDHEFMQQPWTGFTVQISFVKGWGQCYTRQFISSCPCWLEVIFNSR
UniProt Q62432, residues 2-467: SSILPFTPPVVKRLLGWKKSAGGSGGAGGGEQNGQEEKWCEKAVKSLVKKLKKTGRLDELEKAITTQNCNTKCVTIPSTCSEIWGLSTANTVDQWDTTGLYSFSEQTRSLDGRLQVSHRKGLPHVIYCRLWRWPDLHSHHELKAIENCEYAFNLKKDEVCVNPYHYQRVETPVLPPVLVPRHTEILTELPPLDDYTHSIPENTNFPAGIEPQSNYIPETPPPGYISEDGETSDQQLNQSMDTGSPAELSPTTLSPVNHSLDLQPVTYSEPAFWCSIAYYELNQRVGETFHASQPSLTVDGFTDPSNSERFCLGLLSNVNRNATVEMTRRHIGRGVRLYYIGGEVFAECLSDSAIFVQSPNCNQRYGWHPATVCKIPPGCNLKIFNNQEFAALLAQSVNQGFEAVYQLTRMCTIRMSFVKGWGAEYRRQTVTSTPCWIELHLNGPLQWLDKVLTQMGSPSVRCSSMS
UniProt O00308: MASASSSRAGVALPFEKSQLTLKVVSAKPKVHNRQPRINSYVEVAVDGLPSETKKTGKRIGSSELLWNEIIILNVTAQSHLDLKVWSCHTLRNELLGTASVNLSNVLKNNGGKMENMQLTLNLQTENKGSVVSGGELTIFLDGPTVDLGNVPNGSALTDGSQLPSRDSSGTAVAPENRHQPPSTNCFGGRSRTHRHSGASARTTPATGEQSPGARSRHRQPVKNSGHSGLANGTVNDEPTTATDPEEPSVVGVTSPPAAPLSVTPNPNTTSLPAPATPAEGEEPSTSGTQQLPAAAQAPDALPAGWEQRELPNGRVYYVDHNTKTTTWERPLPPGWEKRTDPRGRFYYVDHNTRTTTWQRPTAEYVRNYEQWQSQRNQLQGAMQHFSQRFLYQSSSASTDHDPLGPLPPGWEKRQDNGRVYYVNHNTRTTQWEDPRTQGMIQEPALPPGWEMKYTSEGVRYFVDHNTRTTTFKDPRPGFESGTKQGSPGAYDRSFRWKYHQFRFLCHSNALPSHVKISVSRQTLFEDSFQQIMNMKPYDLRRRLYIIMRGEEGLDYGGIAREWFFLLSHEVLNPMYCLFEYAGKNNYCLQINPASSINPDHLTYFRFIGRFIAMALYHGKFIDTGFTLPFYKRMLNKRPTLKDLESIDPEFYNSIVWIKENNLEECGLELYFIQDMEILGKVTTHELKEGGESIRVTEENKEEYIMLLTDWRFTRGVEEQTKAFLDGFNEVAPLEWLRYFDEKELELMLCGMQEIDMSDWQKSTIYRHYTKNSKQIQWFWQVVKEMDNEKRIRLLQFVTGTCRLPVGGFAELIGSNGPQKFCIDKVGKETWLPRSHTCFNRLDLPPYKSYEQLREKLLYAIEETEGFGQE
WWP2-N, endogenous in mouse WT primary cardiac fibroblasts (Q9DBH0, residues 1-335): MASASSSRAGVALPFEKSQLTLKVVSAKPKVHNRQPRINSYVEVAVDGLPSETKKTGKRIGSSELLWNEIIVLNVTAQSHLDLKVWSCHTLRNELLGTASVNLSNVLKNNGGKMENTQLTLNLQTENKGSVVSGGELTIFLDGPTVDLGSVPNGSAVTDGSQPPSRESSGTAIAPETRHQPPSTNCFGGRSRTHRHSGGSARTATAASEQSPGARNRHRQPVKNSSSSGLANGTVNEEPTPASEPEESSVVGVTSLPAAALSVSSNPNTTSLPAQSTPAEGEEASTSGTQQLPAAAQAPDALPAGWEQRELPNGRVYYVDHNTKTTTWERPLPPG
WWP2-C, endogenous in mouse WT primary cardiac fibroblasts (Q9DBH0, residues 440-870): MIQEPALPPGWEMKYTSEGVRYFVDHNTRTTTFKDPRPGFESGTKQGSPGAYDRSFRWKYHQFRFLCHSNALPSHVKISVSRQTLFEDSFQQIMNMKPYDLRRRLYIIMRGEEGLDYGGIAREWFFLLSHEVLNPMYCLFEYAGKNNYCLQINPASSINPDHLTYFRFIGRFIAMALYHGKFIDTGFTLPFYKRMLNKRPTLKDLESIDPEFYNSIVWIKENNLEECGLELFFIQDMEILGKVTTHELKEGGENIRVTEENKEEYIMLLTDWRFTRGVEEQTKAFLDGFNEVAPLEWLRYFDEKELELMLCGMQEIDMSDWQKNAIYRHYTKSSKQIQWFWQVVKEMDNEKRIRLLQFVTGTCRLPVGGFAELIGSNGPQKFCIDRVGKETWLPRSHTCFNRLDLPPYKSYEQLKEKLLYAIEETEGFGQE

Columns and labels:
[1] = biological target: SMAD7 (mouse) (UniProt O35253); assay: co-immunoprecipitation with anti-FLAG antibody from NIH-3T3 lysates, western blot (FIG. 16C)
[2] = biological target: SMAD2 protein (mouse) (UniProt Q62432); assay: as above
[3] = biological target: SMAD2 protein (mouse) (UniProt Q62432); assay: co-immunoprecipitation in fibroblasts (summary sentence of Example 8)
[4] = biological target: SMAD2 protein (mouse) (UniProt Q62432); assay: co-immunoprecipitation in mouse primary cardiac fibroblasts (summary sentence of Example 5)
[5] = biological target: SMAD7 (mouse) (UniProt O35253); assay: co-immunoprecipitation with anti-SMAD7 antibody from TGFβ1-stimulated mouse primary cardiac fibroblasts, western blot (FIG. 16E)
[6] = biological target: SMAD2 protein (mouse) (UniProt Q62432); assay: co-immunoprecipitation, western blot (summary of FIGS. 16C and 16D)
[7] = biological target: SMAD2 protein (mouse) (UniProt Q62432); assay: co-immunoprecipitation with anti-SMAD2 antibody from TGFβ1-stimulated mouse primary cardiac fibroblasts, western blot (FIG. 16D)

Substance | binding [5] | binding [6] | binding [7] | further results
FLAG-tagged WWP2-C (from UniProt O00308 440-870) (enzyme) |  |  |  | binding [1]: binds
FLAG-tagged WWP2-N (from UniProt O00308 1-335) |  |  |  | binding [2]: binds
WWP2, endogenous in mouse primary cardiac fibroblasts (isoform not specified) (from UniProt Q9DBH0 1-870) (enzyme) |  |  |  | binding [3]: binds; binding [4]: binds
WWP2-FL, endogenous in mouse WT primary cardiac fibroblasts (from UniProt Q9DBH0 1-870) (enzyme) | binds | binds | binds | 

Second part, led by results:

binding [5] | binding [6] | binding [7] | Substance | further results
binds |  |  | WWP2-C, endogenous in mouse WT primary cardiac fibroblasts (from UniProt Q9DBH0 440-870) (enzyme) | 
 | binds | binds | WWP2-N, endogenous in mouse WT primary cardiac fibroblasts (from UniProt Q9DBH0 1-335) | 
